The series can be described thus: Erythrocyte 6-MP metabolite levels by reverse phase HPLC in IBD patients on 6-MP drug (Example I). The following applies: Table 1.

Data on one compound can be found in patent US8030293B2, “Methods of optimizing drug therapeutic efficacy for treatment of immune-mediated gastrointestinal disorders” (Hopital-Sainte-Justine, priority 1998, dated 2011).

As to `Nc1nc2nc[nH]c2c(=S)[nH]1` [6-TG, 6-thioguanine], the “6-TG level associated with remission” value is more than 225 pmol per 8×10^8 RBC.
